Values of other authors, collected in patent US12151062B2, “Compositions and devices to administer pharmaceutical compositions nasally” (BOARD OF REGENTS, THE UNIVERSITY OF TEXAS SYSTEM, priority 2016, dated 2024).
Like-named read-outs stand apart in the source and are kept apart here.

Conditions: rats

## CN1CC[C@]23c4c5ccc(O)c4O[C@H]2[C@@H](O)C=C[C@H]3[C@H]1C5 [Morphine]
After i.v. use
  Brain/Plasma AUC ratio: 0.1 after
Solution (PBS buffer at pH 7.4), after i.n. use
  Brain/Plasma AUC ratio: of 3 after
